These are yes or no findings as the source states them, for the method shown. Binding seen in cells or lysates may run through a third protein. A result given as binding can be weak or reduced; the word gives no strength.
Molecular target: Flag-tagged C. pneumoniae Cpn0677 (Cpn0677-FT) (C. pneumoniae) (UniProt Q9Z7M7)
Experiment: co-IP; Flag-tagged chlamydial protein transiently expressed in HeLa for 24 hrs; lysis in NP40 buffer (50 mM Tris pH7.5, 150 mM NaCl, 1 mM EDTA, 0.5% NP-40); Anti-Flag M2 Affinity gel overnight at 4°C; eluted with 3X Flag peptide; immunoblot for endogenous N-WASP and ARPC1

Chains of the proteins cited; added tags and fusions are not shown. Lines headed by an entry give the natural chain unless they say otherwise; changes in a name come on top.
UniProt Q9Z7M7: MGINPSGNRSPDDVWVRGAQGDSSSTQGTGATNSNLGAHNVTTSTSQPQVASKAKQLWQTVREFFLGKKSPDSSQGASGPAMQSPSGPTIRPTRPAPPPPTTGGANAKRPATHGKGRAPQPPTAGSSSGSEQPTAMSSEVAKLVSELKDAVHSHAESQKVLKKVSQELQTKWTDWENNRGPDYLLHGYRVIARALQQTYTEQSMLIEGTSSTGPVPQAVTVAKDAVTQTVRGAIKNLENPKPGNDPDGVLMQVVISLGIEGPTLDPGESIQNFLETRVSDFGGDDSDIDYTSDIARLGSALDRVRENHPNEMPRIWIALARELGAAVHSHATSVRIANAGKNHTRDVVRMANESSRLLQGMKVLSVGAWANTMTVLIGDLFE
UniProt O00401: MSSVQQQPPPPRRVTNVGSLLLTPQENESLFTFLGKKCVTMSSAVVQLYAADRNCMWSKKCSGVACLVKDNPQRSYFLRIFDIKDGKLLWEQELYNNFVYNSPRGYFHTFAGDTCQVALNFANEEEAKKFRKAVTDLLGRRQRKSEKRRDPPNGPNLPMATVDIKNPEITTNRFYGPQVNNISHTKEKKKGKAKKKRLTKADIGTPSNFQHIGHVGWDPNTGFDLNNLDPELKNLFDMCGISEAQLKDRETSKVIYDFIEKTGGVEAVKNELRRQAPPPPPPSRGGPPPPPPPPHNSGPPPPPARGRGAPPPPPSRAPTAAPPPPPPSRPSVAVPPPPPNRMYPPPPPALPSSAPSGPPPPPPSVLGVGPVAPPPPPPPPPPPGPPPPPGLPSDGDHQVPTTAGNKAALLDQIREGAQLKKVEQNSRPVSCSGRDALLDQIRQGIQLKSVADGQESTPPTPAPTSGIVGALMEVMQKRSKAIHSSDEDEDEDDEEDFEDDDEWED

## Neural-Wiskott Aldrich Syndrome Protein (N-WASP) (from UniProt O00401 1-505)
  binding: binds
